One experiment addresses mCherry-4.1G(ΔCTD). The experiment can be described thus: co-IP; extracts of co-transfected HEK293 cells in IP Lysis/Wash Buffer (0.025 M Tris, 0.15 M NaCl, 0.001 M EDTA, 1% NP40, 5% glycerol, pH 7.4); RFP-Trap (anti-mCherry) magnetic agarose beads overnight at 4°C; blots with anti-GFP and anti-mCherry.
A further experiment deals with Mem-mCherry-4.1G(CTD). The description is as above.

Results are given in words; binding and its absence hold for the method and conditions named. In cells and extracts the contact can be indirect. For some assays here: A result given as binding can be weak or reduced; the word gives no strength. Tags and fused reporters may be left off the sequences shown.

The values that follow come from article PMC11334333.

B1: TMEM24-eGFP (protein, UniProt O14523 1-706)
chain: MDPGWGQRDVGWAALLILFAASLLTVFAWLLQYARGLWLARARGDRGPGPALAGEPAGSLRELGVWRSLLRLRATRAGAAEEPGVRGLLASLFAFKSFRENWQRAWVRALNEQACRNGSSIQIAFEEVPQLPPRASISHVTCVDQSEHTMVLRCQLSAEEVRFPVSVTQQSPAAVSMETYHVTLTLPPTQLEVNLEEIPGEGLLISWAFTDRPDLSLTVLPKLQARERGEEQVELSTIEELIKDAIVSTQPAMMVNLRACSAPGGLVPSEKPPMMPQAQPAIPRPNRLFLRQLRASHLGNELEGTEELCCVAELDNPMQQKWTKPARAGSEVEWTEDLALDLGPQSRELTLKVLRSSSCGDTELLGQATLPVGSPSRPLSRRQLCPLTPGPGKALGPAATMAVELHYEEGSPRNLGTPTSSTPRPSITPTKKIELDRTIMPDGTIVTTVTTVQSRPRIDGKLDSPSRSPSKVEVTEKTTTVLSESSGPSNTSHSSSRDSHLSNGLDPVAETAIRQLTEPSGRVAKKTPTKRSTLIISGVSKVPIAQDELALSLGYAASLEASVQDDAGTSGGPSSPPSDPPAMSPGPLDALSSPTSVQEADETTRSDISERPSVDDIESETGSTGALETRSLKDHKVSFLRSGTKLIFRRRPRQKEAGLSQSHDDLSNATATPSVRKKAGSFSRRLIKRFSFKSKPKANGNPSPQL
Turning to B1, the binding result is “no binding” with mCherry-4.1G(ΔCTD) and “binds” in the experiment with Mem-mCherry-4.1G(CTD).
